The target in experiment [1] is T1, dynamin2 (human (endogenous in primary CD4+ T cells)) (UniProt P50570).
T1 sequence: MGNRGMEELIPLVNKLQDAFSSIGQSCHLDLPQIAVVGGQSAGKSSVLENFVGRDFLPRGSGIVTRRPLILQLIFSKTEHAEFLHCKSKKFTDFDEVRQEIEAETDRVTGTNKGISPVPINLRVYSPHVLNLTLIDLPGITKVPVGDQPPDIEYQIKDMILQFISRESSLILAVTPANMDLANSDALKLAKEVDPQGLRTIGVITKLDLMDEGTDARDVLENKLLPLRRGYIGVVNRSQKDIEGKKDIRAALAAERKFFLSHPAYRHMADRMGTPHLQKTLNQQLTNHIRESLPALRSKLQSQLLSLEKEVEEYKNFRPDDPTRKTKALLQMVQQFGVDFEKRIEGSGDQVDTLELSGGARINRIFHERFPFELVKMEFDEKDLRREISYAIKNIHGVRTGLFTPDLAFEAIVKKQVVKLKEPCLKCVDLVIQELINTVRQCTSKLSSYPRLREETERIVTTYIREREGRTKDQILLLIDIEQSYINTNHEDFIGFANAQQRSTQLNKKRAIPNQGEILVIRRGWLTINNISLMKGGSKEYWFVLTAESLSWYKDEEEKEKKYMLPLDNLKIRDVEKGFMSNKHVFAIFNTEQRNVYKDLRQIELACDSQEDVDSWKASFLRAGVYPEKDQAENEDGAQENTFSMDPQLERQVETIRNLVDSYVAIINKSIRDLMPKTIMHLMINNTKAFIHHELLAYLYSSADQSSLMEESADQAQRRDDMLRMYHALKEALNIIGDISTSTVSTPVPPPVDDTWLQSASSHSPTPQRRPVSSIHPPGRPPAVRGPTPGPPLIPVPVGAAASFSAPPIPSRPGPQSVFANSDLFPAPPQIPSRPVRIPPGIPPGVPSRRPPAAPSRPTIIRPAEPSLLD
Put plainly: co-IP; anti-dynamin2 antibody (or isotype control) on Protein G Dynabeads; lysate of primary human resting CD4+ T cells in Triton lysis buffer (10mM HEPES, 2mM MgCl2, 10mM KCl, 0.5mM EDTA, 150mM NaCl, 0.5% Triton), 4h at 4°C; cells stimulated with 50ng/ml PMA if indicated; western blot.

Experiment [2] deals with T2, RapGEF1 (human (endogenous in primary CD4+ T cells)) (UniProt Q13905).
T2 sequence: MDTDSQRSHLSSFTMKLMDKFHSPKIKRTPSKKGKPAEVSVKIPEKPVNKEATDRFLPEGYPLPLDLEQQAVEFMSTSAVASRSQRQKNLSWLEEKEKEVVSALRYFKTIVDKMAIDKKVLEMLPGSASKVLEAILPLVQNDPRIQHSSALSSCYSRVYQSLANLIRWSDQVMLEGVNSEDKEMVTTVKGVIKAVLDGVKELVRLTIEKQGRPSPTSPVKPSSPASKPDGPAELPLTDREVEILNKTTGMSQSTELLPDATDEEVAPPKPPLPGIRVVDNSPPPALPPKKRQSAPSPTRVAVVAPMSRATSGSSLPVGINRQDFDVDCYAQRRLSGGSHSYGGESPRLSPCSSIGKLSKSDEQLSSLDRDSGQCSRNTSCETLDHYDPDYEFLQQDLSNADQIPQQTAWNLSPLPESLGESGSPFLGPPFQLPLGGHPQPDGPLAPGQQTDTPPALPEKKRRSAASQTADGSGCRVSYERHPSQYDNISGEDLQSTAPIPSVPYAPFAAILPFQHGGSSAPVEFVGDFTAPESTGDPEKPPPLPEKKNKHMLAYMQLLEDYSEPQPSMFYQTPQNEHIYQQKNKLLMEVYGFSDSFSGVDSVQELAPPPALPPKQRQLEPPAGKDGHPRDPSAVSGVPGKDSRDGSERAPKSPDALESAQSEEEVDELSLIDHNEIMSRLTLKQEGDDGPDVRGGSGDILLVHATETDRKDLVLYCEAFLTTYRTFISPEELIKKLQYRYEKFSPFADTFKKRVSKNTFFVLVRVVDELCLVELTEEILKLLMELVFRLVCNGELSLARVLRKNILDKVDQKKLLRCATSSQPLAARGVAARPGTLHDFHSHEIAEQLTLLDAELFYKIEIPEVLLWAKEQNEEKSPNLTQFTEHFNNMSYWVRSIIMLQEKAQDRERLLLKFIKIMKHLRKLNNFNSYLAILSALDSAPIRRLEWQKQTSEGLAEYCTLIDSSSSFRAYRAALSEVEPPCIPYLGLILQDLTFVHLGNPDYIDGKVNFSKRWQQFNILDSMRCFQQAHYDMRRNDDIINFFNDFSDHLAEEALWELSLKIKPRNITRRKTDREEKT
The experiment is described as follows: co-IP; anti-RapGEF1 antibody (or isotype control) on Protein G Dynabeads; lysate of primary human resting CD4+ T cells in Triton lysis buffer (10mM HEPES, 2mM MgCl2, 10mM KCl, 0.5mM EDTA, 150mM NaCl, 0.5% Triton), 4h at 4°C; cells stimulated with 50ng/ml PMA if indicated; western blot.

These are yes or no findings as the source states them, for the method shown. In cells and extracts the contact can be indirect.

Regarding Rap1 (Ras-related protein 1), the binding entry in experiment [1] and in experiment [2] was “no binding” in each case.

Source of the values: PMC5342215.
